According to PubChem BioAssay AID901 (National Center for Advancing Translational Sciences (NCATS), 2007):
Some of the results follow. These are further read-outs of the screen, such as a control signal, another cell line or another target. No call is given for them. Compounds called inactive in the main read-out are mostly missing here. Potencies come from curve fits of mixed quality, noted in brackets.

Test: qHTS Assay for Identifying the Cell-Membrane Permeable IMPase Inhibitors
Details: CHO-M1 cells, IP1 accumulation, HTRF TR-FRET ratio; measured here: donor channel 620 nm AC50

Row | SMILES | AC50
1 | CCOc1ccccc1NC(=O)COC(=O)Cc1ccc(-c2ccccc2)cc1 | 35.5 µM [rising, single point]
2 | CCOc1ccc2c(c1)C(c1ccc(C)cc1)=NNC(c1ccc(C)cc1)=N2 | 0.631 µM [falling, full curve]
3 | CCOC(=O)N1CCC(NC(=O)c2ccc3c(c2)N(Cc2ccc(C)cc2)CCS3)CC1 | 0.0355 µM [falling, full curve]
4 | O=C(Oc1ccccc1)Oc1ccc2c(c1)oc(=O)c1ccccc12 | 25.1 µM [rising, partial curve]
5 | CCOC(=O)CCc1c(C)c2ccc(OCc3ccc([N+](=O)[O-])cc3)cc2oc1=O | 0.00158 µM [falling, full curve, poor fit]
6 | N#C/C(=C/c1ccc(N2CCOCC2)o1)c1nc2ccccc2[nH]1 | 0.794 µM [falling, single point]
7 | O=C(Nc1nnc(-c2ccccc2SCc2ccccc2)s1)Nc1ccccc1F | 1 µM [rising, full curve]
8 | CC(=O)CC(C)=NCCN=C(C)CC(C)=O | 31.6 µM [falling, single point]
9 | O=C(O)CCCNc1cc(N2CCC3(CC2)OCCO3)c2noc3c2c1C(=O)c1ccccc1-3 | 20 µM [falling, partial curve, poor fit]
10 | CCOCC(=O)Nc1nc2c(s1)C(=O)CC(C)(C)C2 | 11.2 µM [falling, partial curve, poor fit]
11 | Cc1cc(OCCOCCN(C)CCO)cc(C)c1Cl | 12.6 µM [falling, partial curve, poor fit]
12 | O=C(CSc1nc(-c2ccccc2)nc2c1Cc1ccccc1O2)Nc1ccccc1 | 31.6 µM [rising, single point]
13 | CCOc1ccccc1NC(=O)Cc1ccccc1OC | 6.31 µM [rising, single point]
14 | COC(=O)c1c(NC(=O)CN2C(=O)C(=O)N(CC(C)C)C2=O)sc2c1CCCCC2 | 0.0126 µM [rising, full curve, poor fit]
15 | Cc1cccc2cc(C#N)c(SCC(=O)NCC3CCCO3)nc12 (stereo unspecified) | 31.6 µM [rising, partial curve]
16 | O=C(CSc1nnc(Cc2cccs2)n1C1CCCCC1)N1CCN(C(=O)c2ccco2)CC1 | 0.0251 µM [rising, full curve, poor fit]
17 | CC(Sc1ccc2ccccc2n1)C(=O)O (stereo unspecified) | 12.6 µM [rising, partial curve]
18 | CCOc1cc(C(=O)Nc2ccc3oc(-c4ccc(F)cc4Cl)nc3c2)cc(OCC)c1OCC | 4.47 µM [rising, single point]
19 | FC(F)(F)c1cc(-c2cccs2)nc(N2CCOCC2)n1 | 0.282 µM [rising, full curve, poor fit]
20 | Cc1nc(SC2CC(=O)N(c3ccc([N+](=O)[O-])cc3)C2=O)nc2c1CCCC2 (stereo unspecified) | 0.316 µM [falling, partial curve, poor fit]
21 | O=C(CSc1nc(-c2ccc(F)cc2)cc(C(F)(F)F)n1)NCc1ccccc1 | 0.501 µM [falling, full curve]

3 compounds from above, sorted by SMILES length, low to high.
Row | SMILES | AC50
6 | N#C/C(=C/c1ccc(N2CCOCC2)o1)c1nc2ccccc2[nH]1 | 0.794 µM [falling, single point]
7 | O=C(Nc1nnc(-c2ccccc2SCc2ccccc2)s1)Nc1ccccc1F | 1 µM [rising, full curve]
5 | CCOC(=O)CCc1c(C)c2ccc(OCc3ccc([N+](=O)[O-])cc3)cc2oc1=O | 0.00158 µM [falling, full curve, poor fit]

Remaining list, next part

Row | SMILES | AC50
22 | CCOc1ccc(OCC(=O)N2CCOCC2)cc1 | 0.891 µM [falling, full curve, poor fit]
23 | CNCCCC12CCC(c3ccccc31)c1ccccc12 | 7.94 µM [falling, single point]
24 | CCOC(=O)c1nnn(CC(=O)Nc2cc(F)ccc2F)c1C(=O)OCC | 0.0316 µM [falling, full curve, poor fit]
25 | COC(=O)c1[nH]c2cc(OC)ccc2c1N | 12.6 µM [falling, single point]
26 | O=C(c1ccc2c(c1)OCO2)N1CCN(c2ccc(F)cc2)CC1 | 0.0501 µM [rising, partial curve, poor fit]
27 | Cc1ccc(Cn2c(NC(=O)c3ccco3)nc3ccccc32)cc1 | 3.16 µM [falling, single point]
28 | Cc1cccc(C)c1NC(=O)NC1(C(=O)NCCCN2CCOCC2)CCCCC1 | 3.98 µM [falling, single point]
29 | COCCCNC(=O)c1cc2c(=O)n3cc(C)ccc3nc2nc1NCC1CCCO1 (stereo unspecified) | 0.0282 µM [rising, full curve]
30 | Cc1c(C(=O)O)c(O)cc2c1C(=O)c1c(O)c([C@H]3O[C@H](CO)[C@@H](O)[C@H](O)[C@H]3O)c(O)c(O)c1C2=O | 3.98 µM [falling, partial curve, poor fit]
31 | O=S(=O)(c1cccc(S(=O)(=O)N2CCC(Cc3ccccc3)CC2)c1)N1CCOCC1 | 0.0126 µM [falling, full curve, poor fit]
32 | CC(C)CNC(=O)c1noc2c1CCCC2 | 12.6 µM [falling, partial curve]
33 | Cc1ccnc(NC(=O)CCC(=O)N(CC(=O)NC2CCCCC2)Cc2ccc3c(c2)OCO3)c1 | 5.01 µM [falling, single point]
34 | O=C(C1CCCN(S(=O)(=O)c2cccc3nonc23)C1)N1CCN(c2ccccc2F)CC1 (stereo unspecified) | 3.16 µM [falling, partial curve, poor fit]
35 | CCCCCN1C(C(=O)c2ccccc2)=C(NC(=O)c2ccc(OC)c(OC)c2)c2ccccc2S1(=O)=O | 5.62 µM [rising, single point]
36 | O=C1CCc2cc(S(=O)(=O)N3CCC(C(=O)NCc4ccccn4)CC3)ccc2N1 | 0.0398 µM [rising, full curve, poor fit]
37 | CCC(C)(C)NC(=O)C(c1ccccc1F)N(Cc1ccco1)C(=O)Cn1nnc2ccccc21 (stereo unspecified) | 25.1 µM [falling, single point]
38 | CCCC(c1nnnn1Cc1ccc(OC)cc1)N1CCN(c2ccccc2)CC1 (stereo unspecified) | 31.6 µM [falling, single point]
39 | COC(=O)C1=C(CSc2nc3c(cc2C#N)CN(C)CC3)OC(N)=C(C#N)C1c1ccc(F)cc1 (stereo unspecified) | 0.251 µM [rising, single point]
40 | O=C(Nc1ccc2nc(-c3cccnc3)[nH]c2c1)c1ccco1 | 17.8 µM [falling, single point]
41 | CCS(=O)(=O)n1nc(-c2ccccc2)nc1N | 1 µM [falling, single point]
